Assay results published in patent US20240350586A1.
Results are given in words; binding and its absence hold for the method and conditions named. In cells and extracts the contact can be indirect. Some entries that bind do so weakly or less than the wild type.

The chains behind the UniProt entries cited, without tags or fusion partners.
UniProt Q9BXW4: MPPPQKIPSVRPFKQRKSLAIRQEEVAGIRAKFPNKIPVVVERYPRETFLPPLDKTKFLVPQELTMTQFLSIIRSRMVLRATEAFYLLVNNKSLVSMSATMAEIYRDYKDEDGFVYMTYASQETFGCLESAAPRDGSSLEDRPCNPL
UniProt O95166: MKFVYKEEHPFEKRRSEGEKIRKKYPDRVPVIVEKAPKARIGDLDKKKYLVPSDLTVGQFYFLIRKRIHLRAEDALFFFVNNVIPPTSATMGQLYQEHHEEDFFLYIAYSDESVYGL

Experiments:
[1] = biological target: His-T7-LC3C (purified protein) (UniProt Q9BXW4); assay: synthetic peptide pull-down, immunoblot
[2] = biological target: His-T7-GABARAP (purified protein) (UniProt O95166); assay: synthetic peptide pull-down of T7-GABARAP protein

binding [1]: binds
binding [2]: binds
Binder: ILGITESFQVKRQVLLSAAEAAEVILRVDN [CCT2 domain3 peptide 7]
